Data reported in the supplement of paper PMC12889115.
The list shows a part of the results. Values are raw readings; no control value is given beside them.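 Primary screen: polymyxin B was added at a level permeabilizing Salmonella outer membranes while sparing inner membranes. DMSO wells, both with and without polymyxin B, established maximum growth. Plate-to-plate variation meant each plate was ranked on its own, and the lowest-OD600 compounds were selected as hits.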

Tested on: Salmonella enterica serovar Typhimurium SL1344
Test: bacterial growth OD600 after 18 h with compound and polymyxin B; higher = more bacterial growth (less inhibition)
Settings: 50 µM, Mueller-Hinton broth

Row | SMILES | bacterial growth OD600 (polymyxin B 1 µg/mL) | bacterial growth OD600 (polymyxin B 0.75 µg/mL)
1 | Cc1ccc(-c2cn3c(C(=O)N4CCCCCCC4)csc3n2)cc1 | 0.379 | 
2 | CO[C@H]1[C@H](NC(=O)c2ccncc2)c2ccccc2C12CCN(C(=O)Cc1c(F)cccc1F)CC2 |  | 0.998
3 | COc1cccc(-c2cc(CC3(O)CCN(Cc4cccc5c4OCO5)CC3)on2)c1 | 0.922 | 
4 | COc1ccc(-c2nc(CN(C)Cc3nonc3C)c(C)o2)c2ccccc12 | 0.844 | 
5 | CC(C)CCNC(=O)C1CCCN(C2CCN(CCc3ccccc3)CC2)C1 (centres undefined) | 0.925 | 
6 | CC(C)(O)C#Cc1ccc(CN2CCCC(CNC(=O)c3cccnc3)C2)s1 (centres undefined) | 0.878 | 
7 | CCN(Cc1nccn1C)C(=O)c1ccc(NCC2CCCOC2)nc1 (centres undefined) | 0.898 | 
8 | COc1ccccc1C1CN(Cc2cc(OC)c(O)c(OC)c2)Cc2ccccc2O1 (centres undefined) |  | 0.607
9 | CC(C)CN1CCC(C2CCN(C(=O)c3ccnc(N)c3)C2)CC1 (centres undefined) |  | 0.848
